Patent publication US20120329784A1, “COMPOUNDS AND METHODS” (priority 2010, published 2012)
Structures can show the parent of a compound that is named as a salt. Some of these results come from one statement about several compounds together.

target: T1, Full length human TNNI3K (hTNNI3K) (Homo sapiens, UniProt Q59H18); experiment: Fluorescent polarization assay of compound inhibition on hTNNI3K ATP binding (Biological Assay Method I); details: mean of a minimum of 2 experiments; displacement of fluorescent ligand from hTNNI3K ATP binding pocket; 60 min at rt
T1 construct: His-MBP-TEV-Full length human TNNI3K (hTNNI3K); His (N); MBP (N); TEV cleavage site (N); made in house; host or cells: baculovirus expression system (printed 'Baculokinase system')
T1 sequence (Q59H18 1-835): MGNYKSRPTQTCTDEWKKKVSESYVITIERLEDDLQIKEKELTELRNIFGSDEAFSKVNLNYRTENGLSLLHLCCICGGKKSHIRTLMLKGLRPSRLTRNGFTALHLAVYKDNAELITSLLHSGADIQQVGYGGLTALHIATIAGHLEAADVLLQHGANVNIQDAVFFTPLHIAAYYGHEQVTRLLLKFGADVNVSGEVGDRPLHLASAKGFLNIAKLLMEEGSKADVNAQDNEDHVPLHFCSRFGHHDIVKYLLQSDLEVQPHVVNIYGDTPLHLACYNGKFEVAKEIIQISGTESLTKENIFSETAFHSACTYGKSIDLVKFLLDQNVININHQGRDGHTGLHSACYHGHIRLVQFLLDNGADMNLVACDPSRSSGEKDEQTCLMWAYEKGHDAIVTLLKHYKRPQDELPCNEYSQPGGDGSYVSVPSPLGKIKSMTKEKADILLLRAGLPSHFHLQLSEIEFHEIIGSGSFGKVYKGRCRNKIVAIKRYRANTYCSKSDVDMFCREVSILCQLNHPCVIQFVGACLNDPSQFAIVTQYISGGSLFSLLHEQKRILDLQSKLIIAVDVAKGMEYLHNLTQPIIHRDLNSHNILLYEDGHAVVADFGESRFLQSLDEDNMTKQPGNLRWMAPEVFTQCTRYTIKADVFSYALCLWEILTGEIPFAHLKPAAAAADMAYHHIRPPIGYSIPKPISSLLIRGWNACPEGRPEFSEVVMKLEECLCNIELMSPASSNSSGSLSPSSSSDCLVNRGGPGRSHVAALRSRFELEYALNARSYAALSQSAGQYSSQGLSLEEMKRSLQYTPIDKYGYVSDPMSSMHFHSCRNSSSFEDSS

pXC50, ≥ 6.0:
CCS(=O)(=O)c1ccc(S(=O)(=O)NC)cc1Nc1cc(Nc2ccc(C(F)(F)F)cn2)ncn1 [Example 322, 4-(ethylsulfonyl)-N-methyl-3-[(6-{[5-(trifluoromethyl)-2-pyridinyl]amino}-4-pyrimidinyl)amino]benzenesulfonamide trifluoroacetate]
CNS(=O)(=O)c1ccc(F)c(Nc2cc(Nc3ccc(C(F)(F)F)cn3)ncn2)c1 [Example 303, 4-fluoro-N-methyl-3-[(6-{[5-(trifluoromethyl)-2-pyridinyl]amino}-4-pyrimidinyl)amino]benzenesulfonamide trifluoroacetate]
CNS(=O)(=O)c1ccc(OCC(F)(F)F)c(Nc2cc(Nc3ccc(F)c(F)c3)ncn2)c1.Cl [Example 120, 3-({6-[(3,4-difluorophenyl)amino]-4-pyrimidinyl}amino)-N-methyl-4-[(2,2,2-trifluoroethyl)oxy]benzenesulfonamide hydrochloride]
CNS(=O)(=O)c1ccc(OC(C)C(F)(F)F)c(Nc2cc(Nc3ccc(F)c(F)c3)ncn2)c1 (stereo not shown) [Example 45, 3-({6-[(3,4-difluorophenyl)amino]-4-pyrimidinyl}amino)-N-methyl-4-[(2,2,2-trifluoro-1-methylethyl)oxy]benzenesulfonamide trifluoroacetate]
CNS(=O)(=O)c1cccc(Nc2cc(Nc3cccc(-c4cncc(OC)c4)c3)ncn2)c1 [Example 336, N-methyl-3-{[6-({3-[5-(methyloxy)-3-pyridinyl]phenyl}amino)-4-pyrimidinyl]amino}benzenesulfonamide]
CNS(=O)(=O)c1ccc(OCC(F)(F)F)c(Nc2cc(Nc3ccccn3)ncn2)c1 [Example 288, N-methyl-3-{[6-(2-pyridinylamino)-4-pyrimidinyl]amino}-4-[(2,2,2-trifluoroethyl)oxy]benzenesulfonamide trifluoroacetate]
CNS(=O)(=O)c1cccc(Nc2cc(Nc3cccc(CN4CCCC4)c3)ncn2)c1 [Example 223, N-methyl-3-[(6-{[3-(1-pyrrolidinylmethyl)phenyl]amino}-4-pyrimidinyl)amino]benzenesulfonamide trifluoroacetate]
CNS(=O)(=O)c1ccc(OC)c(Nc2cc(Nc3ccc(OCCOC)cc3)ncn2)c1.Cl [Example 34, N-methyl-4-(methyloxy)-3-({6-[(4-{[2-(methyloxy)ethyl]oxy}phenyl)amino]-4-pyrimidinyl}amino)benzenesulfonamide hydrochloride]
CNS(=O)(=O)c1ccc(S(C)(=O)=O)c(Nc2cc(Nc3ccc(C(F)(F)F)cn3)ncn2)c1 [Example 306, N-methyl-4-(methylsulfonyl)-3-[(6-{[5-(trifluoromethyl)-2-pyridinyl]amino}-4-pyrimidinyl)amino]benzenesulfonamide]
CNS(=O)(=O)c1cccc(Nc2cc(Nc3ccc4c(c3)CN(C)CC4)ncn2)c1 [Example 59, N-methyl-3-({6-[(2-methyl-1,2,3,4-tetrahydro-7-isoquinolinyl)amino]-4-pyrimidinyl}amino)benzenesulfonamide trifluoroaceate]
CNS(=O)(=O)c1cccc(Nc2cc(Nc3ccc4ccccc4n3)ncn2)c1 [Example 279, N-methyl-3-{[6-(2-quinolinylamino)-4-pyrimidinyl]amino}benzenesulfonamide]
CNS(=O)(=O)c1ccc(F)c(Nc2cc(Nc3ccc(OC(F)(F)F)cc3)ncn2)c1 [Example 128, 4-fluoro-N-methyl-3-{[6-({4-[(trifluoromethyl)oxy]phenyl}amino)-4-pyrimidinyl]amino}benzenesulfonamide trifluoroacetate]
CNS(=O)(=O)c1cccc(Nc2cc(Nc3ccc(C(=O)NCCO)cc3)ncn2)c1 [Example 353, N-(2-hydroxyethyl)-4-{[6-({3-[(methylamino)sulfonyl]phenyl}amino)-4-pyrimidinyl]amino}benzamide]
